Results: the supplement of paper PMC3353916
± gives the standard deviation of the averaged measurements. This is a noisy data set.

System: Sindbis virus TE/5'2J-GFP
Assay: percent infected (GFP+ in RFP+ ISG-expressing cells); higher = more infection (less antiviral activity)
Conditions: experiment: primary screen (single well)

Sequence | percent infected (BHK/HA-Zeo (control)) [%] | percent infected (BHK/NZAP-Zeo (ZAP)) [%]
MSQWYELQQLDSKFLEQVHQLYDDSFPMEIRQYLAQWLEKQDWEHAANDVSFATIRFHDLLSQLDDQYSRFSLENNFLLQHNIRKSKRNLQDNFQEDPIQMSMIIYSCLKEERKILENAQRFNQAQSGNIQSTVMLDKQKELDSKVRNVKDKVMCIEHEIKSLEDLQDEYDFKCKTLQNREHETNGVAKSDQKQEQLLLKKMYLMLDNKRKEVVHKIIELLNVTELTQNALINDELVEWKRRQQSACIGGPPNACLDQLQNWFTIVAESLQQVRQQLKKLEELEQKYTYEHDPITKNKQVLWDRTFSLFQQLIQSSFVVERQPCMPTHPQRPLVLKTGVQFTVKLRLLVKLQELNYNLKVKVLFDKDVNERNTVKGFRKFNILGTHTKVMNMEESTNGSLAAEFRHLQLKEQKNAGTRTNEGPLIVTEELHSLSFETQLCQPGLVIDLETTSLPVVVISNVSQLPSGWASILWYNMLVAEPRNLSFFLTPPCARWAQLSEVLSWQFSSVTKRGLNVDQLNMLGEKLLGPNASPDGLIPWTRFCKENINDKNFPFWLWIESILELIKKHLLPLWNDGCIMGFISKERERALLKDQQPGTFLLRFSESSREGAITFTWVERSQNGGEPDFHAVEPYTKKELSAVTFPDIIRNYKVMAAENIPENPLKYLYPNIDKDHAFGKYYSRPKEAPEPMELDGPKGTGYIKTELISVSEVHPSRLQTTDNLLPMSPEEFDEVSRIVGSVEFDSMMNTV [STAT1] | 98.3 | 97.2
MSRRSQRLTRYSQGDDDGSSSSGGSSVAGSQSTLFKDSPLRTLKRKSSNMKRLSPAPQLGPSSDAHTSYYSESLVHESWFPPRSSLEELHGDANWGEDLRVRRRRGTGGSESSRASGLVGRKATEDFLGSSSGYSSEDDYVGYSDVDQQSSSSRLRSAVSRAGSLLWMVATSPGRLFRLLYWWAGTTWYRLTTAASLLDVFVLTRRFSSLKTFLWFLLPLLLLTCLTYGAWYFYPYGLQTFHPALVSWWAAKDSRRPDEGWEARDSSPHFQAEQRVMSRVHSLERRLEALAAEFSSNWQKEAMRLERLELRQGAPGQGGGGGLSHEDTLALLEGLVSRREAALKEDFRRETAARIQEELSALRAEHQQDSEDLFKKIVRASQESEARIQQLKSEWQSMTQESFQESSVKELRRLEDQLAGLQQELAALALKQSSVAEEVGLLPQQIQAVRDDVESQFPAWISQFLARGGGGRVGLLQREEMQAQLRELESKILTHVAEMQGKSAREAAASLSLTLQKEGVIGVTEEQVHHIVKQALQRYSEDRIGLADYALESGGASVISTRCSETYETKTALLSLFGIPLWYHSQSPRVILQPDVHPGNCWAFQGPQGFAVVRLSARIRPTAVTLEHVPKALSPNSTISSAPKDFAIFGFDEDLQQEGTLLGKFTYDQDGEPIQTFHFQAPTMATYQVVELRILTNWGHPEYTCIYRFRVHGEPAH [UNC84B] | 98.6 | 95.3
MSRSYNDELQFLEKINKNCWRIKKGFVPNMQVEGVFYVNDALEKLMFEELRNACRGGGVGGFLPAMKQIGNVAALPGIVHRSIGLPDVHSGYGFAIGNMAAFDMNDPEAVVSPGGVGFDINCGVRLLRTNLDESDVQPVKEQLAQAMFDHIPVGVGSKGVIPMNAKDLEEALEMGVDWSLREGYAWAEDKEHCEEYGRMLQADPNKVSARAKKRGLPQLGTLGAGNHYAEIQVVDEIFNEYAAKKMGIDHKGQVCVMIHSGSRGLGHQVATDALVAMEKAMKRDKIIVNDRQLACARIASPEGQDYLKGMAAAGNYAWVNRSSMTFLTRQAFAKVFNTTPDDLDLHVIYDVSHNIAKVEQHVVDGKERTLLVHRKGSTRAFPPHHPLIAVDYQLTGQPVLIGGTMGTCSYVLTGTEQGMTETFGTTCHGAGRALSRAKSRRNLDFQDVLDKLADMGIAIRVASPKLVMEEAPESYKNVTDVVNTCHDAGISKKAIKLRPIAVIKG [C22orf28] | 98.2 | –
MSSAIERKSLDPSEEPVDEVLQIPPSLLTCGGCQQNIGDRYFLKAIDQYWHEDCLSCDLCGCRLGEVGRRLYYKLGRKLCRRDYLRLFGQDGLCASCDKRIRAYEMTMRVKDKVYHLECFKCAACQKHFCVGDRYLLINSDIVCEQDIYEWTKINGMI [LMO2] | 91 | 75.6
MSSDFPHYNFRMPNIGFQNLPLNIYIVVFGTAIFVFILSLLFCCYLIRLRHQAHKEFYAYKQVILKEKVKELNLHELCAVCLEDFKPRDELGICPCKHAFHRKCLIKWLEVRKVCPLCNMPVLQLAQLHSKQDRGPPQGPLPGAENIV [RNF24] | 98.6 | 97.5
MSSENCFVAENSSLHPESGQENDATSPHFSTRHEGSFQVPVLCAVMNVVFITILIIALIALSVGQYNCPGQYTFSMPSDSHVSSCSEDWVGYQRKCYFISTVKRSWTSAQNACSEHGATLAVIDSEKDMNFLKRYAGREEHWVGLKKEPGHPWKWSNGKEFNNWFNVTGSDKCVFLKNTEVSSMECEKNLYWICNKPYK [CD69] | 88.1 | 81.9
MSSILPFTPPIVKRLLGWKKGEQNGQEEKWCEKAVKSLVKKLKKTGQLDELEKAITTQNVNTKCITIPRSLDGRLQVSHRKGLPHVIYCRLWRWPDLHSHHELRAMELCEFAFNMKKDEVCVNPYHYQRVETPVLPPVLVPRHTEIPAEFPPLDDYSHSIPENTNFPAGIEPQSNIPETPPPGYLSEDGETSDHQMNHSMDAGSPNLSPNPMSPAHNNLDLQPVTYCEPAFWCSISYYELNQRVGETFHASQPSMTVDGFTDPSNSERFCLGLLSNVNRNAAVELTRRHIGRGVRLYYIGGEVFAECLSDSAIFVQSPNCNQRYGWHPATVCKIPPGCNLKIFNNQEFAALLAQSVNQGFEAVYQLTRMCTIRMSFVKGWGAEYRRQTVTSTPCWIELHLNGPLQWLDKVLTQMGSPSIRCSSVS [SMAD3] | 88 | 66.7
MSSSGTPDLPVLLTDLKIQYTKIFINNEWHDSVSGKKFPVFNPATEEELCQVEEGDKEDVDKAVKAARQAFQIGSPWRTMDASERGRLLYKLADLIERDRLLLATMESMNGGKLYSNAYLNDLAGCIKTLRYCAGWADKIQGRTIPIDGNFFTYTRHEPIGVCGQIIPWNFPLVMLIWKIGPALSCGNTVVVKPAEQTPLTALHVASLIKEAGFPPGVVNIVPGYGPTAGAAISSHMDIDKVAFTGSTEVGKLIKEAAGKSNLKRVTLELGGKSPCIVLADADLDNAVEFAHHGVFYHQGQCCIAASRIFVEESIYDEFVRRSVERAKKYILGNPLTPGVTQGPQIDKEQYDKILDLIESGKKEGAKLECGGGPWGNKGYFVQPTVFSNVTDEMRIAKEEIFGPVQQIMKFKSLDDVIKRANNTFYGLSAGVFTKDIDKAITISSALQAGTVWVNCYGVVSAQCPFGGFKMSGNGRELGEYGFHEYTEVKTVTVKISQKNS [ALDH1A1] | 93.8 | –
MSSWSRQRPKSPGGIQPHVSRTLFLLLLLAASAWGVTLSPKDCQVFRSDHGSSISCQPPAEIPGYLPADTVHLAVEFFNLTHLPANLLQGASKLQELHLSSNGLESLSPEFLRPVPQLRVLDLTRNALTGLPPGLFQASATLDTLVLKENQLEVLEVSWLHGLKALGHLDLSGNRLRKLPPGLLANFTLLRTLDLGENQLETLPPDLLRGPLQLERLHLEGNKLQVLGKDLLLPQPDLRYLFLNGNKLARVAAGAFQGLRQLDMLDLSNNSLASVPEGLWASLGQPNWDMRDGFDISGNPWICDQNLSDLYRWLQAQKDKMFSQNDTRCAGPEAVKGQTLLAVAKSQ [LRG1] | 95.7 | 82.6
MSTAALITLVRSGGNQVRRRVLLSSRLLQDDRRVTPTCHSSTSEPRCSRFDPDGSGSPATWDNFGIWDNRIDEPILLPPSIKYGKPIPKISLENVGCASQIGKRKENEDRFDFAQLTDEVLYFAVYDGHGGPAAADFCHTHMEKCIMDLLPKEKNLETLLTLAFLEIDKAFSSHARLSADATLLTSGTTATVALLRDGIELVVASVGDSRAILCRKGKPMKLTIDHTPERKDEKERIKKCGGFVAWNSLGQPHVNGRLAMTRSIGDLDLKTSGVIAEPETKRIKLHHADDSFLVLTTDGINFMVNSQEICDFVNQCHDPNEAAHAVTEQAIQYGTEDNSTAVVVPFGAWGKYKNSEINFSFSRSFASSGRWA [PPM1K] | 97.75 ± 0.21 | 90.3 ± 0.14
MSTEADEGITFSVPPFAPSGFCTIPEGGICRRGGAAAVGEGEEHQLPPPPPGSFWNVESAAAPGIGCPAATSSSSATRGRGSSVGGGSRRTTVAYVINEASQGQLVVAESEALQSLREACETVGATLETLHFGKLDFGETTVLDRFYNADIAVVEMSDAFRQPSLFYHLGVRESFSMANNIILYCDTNSDSLQSLKEIICQKNTMCTGNYTFVPYMITPHNKVYCCDSSFMKGLTELMQPNFELLLGPICLPLVDRFIQLLKVAQASSSQYFRESILNDIRKARNLYTGKELAAELARIRQRVDNIEVLTADIVINLLLSYRDIQDYDSIVKLVETLEKLPTFDLASHHHVKFHYAFALNRRNLPGDRAKALDIMIPMVQSEGQVASDMYCLVGRIYKDMFLDSNFTDTESRDHGASWFKKAFESEPTLQSGINYAVLLLAAGHQFESSFELRKVGVKLSSLLGKKGNLEKLQSYWEVGFFLGASVLANDHMRVIQASEKLFKLKTPAWYLKSIVETILIYKHFVKLTTEQPVAKQELVDFWMDFLVEATKTDVTVVRFPVLILEPTKIYQPSYLSINNEVEEKTISIWHVLPDDKKGIHEWNFSASSVRGVSISKFEERCCFLYVLHNSDDFQIYFCTELHCKKFFEMVNTITEEKGRSTEEGDCESDLLEYDYEYDENGDRVVLGKGTYGIVYAGRDLSNQVRIAIKEIPERDSRYSQPLHEEIALHKHLKHKNIVQYLGSFSENGFIKIFMEQVPGGSLSALLRSKWGPLKDNEQTIGFYTKQILEGLKYLHDNQIVHRDIKGDNVLINTYSGVLKISDFGTSKRLAGINPCTETFTGTLQYMAPEIIDKGPRGYGKAADIWSLGCTIIEMATGKPPFYELGEPQAAMFKVGMFKVHPEIPESMSAEAKAFILKCFEPDPDKRACANDLLVDEFLKVSSKKKKTQPKLSALSAGSNEYLRSISLPVPVLVEDTSSSSEYGSVSPDTELKVDPFSFKTRAKSCGERDVKGIRTLFLGIPDENFEDHSAPPSPEEKDSGFFMLRKDSERRATLHRILTEDQDKIVRNLMESLAQGAEEPKLKWEHITTLIASLREFVRSTDRKIIATTLSKLKLELDFDSHGISQVQVVLFGFQDAVNKVLRNHNIKPHWMFALDSIIRKAVQTAITILVPELRPHFSLASESDTADQEDLDVEDDHEEQPSNQTVRRPQAVIEDAVATSGVSTLSSTVSHDSQSAHRSLNVQLGRMKIETNRLLEELVRKEKELQALLHRAIEEKDQEIKHLKLKSQPIEIPELPVFHLNSSGTNTEDSELTDWLRVNGADEDTISRFLAEDYTLLDVLYYVTRDDLKCLRLRGGMLCTLWKAIIDFRNKQT [MAP3K5] | 92.6 | 94.8
MSVKGMAIALAVILCATVVQGFPMFKRGRCLCIGPGVKAVKVADIEKASIMYPSNNCDKIEVIITLKENKGQRCLNPKSKQARLIIKKVERKNF [CXCL11] | 94.1 | 88.6
MTEAGKLPLPLPPRLDWFVHTQMGQLAQDGVPEWFHGAISREDAENLLESQPLGSFLIRVSHSHVGYTLSYKAQSSCCHFMVKLLDDGTFMIPGEKVAHTSLDALVTFHQQKPIEPRRELLTQPCRQKDPANVDYEDLFLYSNAVAEEAACPVSAPEEASPKPVLCHQSKERKPSAEMNRITTKEATSSCPPKSPLGETRQKLWRSLKMLPERGQRVRQQLKSHLATVNLSSLLDVRRSTVISGPGTGKGSQDHSGDPTSGDRGYTDPCVATSLKSPSQPQAPKDRKVPTRKAERSVSCIEVTPGDRSWHQMVVRALSSQESKPEHQGLAEPENDQLPEEYQQPPPFAPGYC [HSH2D] | 96.9 | 94.3
